Among the data in the supplement of paper PMC9938546 are HCT116-GFP viability values, retold here.

Structures can show the parent of a compound that is named as a salt. The list shows a part of the results. Part of the spread comes from offsets between plates or batches.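 HCT116-GFP, a KRAS-mutant, microsatellite-unstable human colorectal cancer line, constantly expresses green fluorescent protein; immune cells were from healthy donors. Cancer cell survival was tracked by live-cell imaging of green fluorescence, and activated immune cells by themselves reduced survival to roughly half.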

The subject of the experiment is HCT116-GFP. Briefly: HCT116-GFP viability (GFP intensity) relative to untreated HCT116-GFP monoculture control, co-culture with activated PBMCs; higher = less cancer cell killing. The note with it: culture: co-culture with anti-CD3/IL2 activated PBMCs 1:1; 10 µM; 72 h.
In the case of `Nc1ccc(S(=O)(=O)Nc2cnc3ccccc3n2)cc1` [Sulfaquinoxaline sodium salt], the HCT116-GFP viability is 73%. Under `NCCCC(O)(P(=O)(O)O)P(=O)(O)O` [Alendronate sodium] stands 48.9%; under `N=C(N)NCc1cccc(I)c1` [Iobenguane sulfate], 34.5%; under `NC(=O)OCC(COC(N)=O)c1ccccc1` [Felbamate], 34.6%. For `C[C@H]1NC(=O)NC1=O` [Methylhydantoin-5-(D)] the value was 75.2%; for `Cc1ccnc(NS(=O)(=O)c2ccc(N)cc2)n1` [Sulfamerazine], 68.3%. Under `CC(C)n1c(/C=C/C(O)CC(O)CC(=O)O)c(-c2ccc(F)cc2)c2ccccc21` (centres undefined) [Fluvastatin sodium salt] stands 35.9%.

In turn, `CCCCNc1cc(C(=O)O)cc(S(N)(=O)=O)c1Oc1ccccc1` [Bumetanide] showed an HCT116-GFP viability of 40.3%. For `CNC(=O)c1c(I)c(C(=O)NCC(=O)Nc2c(I)c(C(=O)O)c(I)c(C(=O)NCCO)c2I)c(I)c(N(C)C(C)=O)c1I` [Ioxaglic acid] the value was 41.8%; for `CC(=O)Oc1ccccc1C(=O)Oc1ccccc1C(=O)O` [Acetylsalicylsalicylic acid], 52.3%. Under `CCN(CC)CCOC(=O)c1ccc(N)cc1` [Procaine hydrochloride] stands 67.8%; under `Cc1c(C)c2c(c(C)c1O)CCC(C)(C(=O)O)O2` (centres undefined) [Trolox], 32%; under `CC[C@H](C)C(=O)O[C@H]1C[C@@H](C)C=C2C=C[C@H](C)[C@H](CC[C@@H]3C[C@@H](O)CC(=O)O3)[C@H]21` [Lovastatin], 54.4%. Under `CC(=O)N[C@@H](CS)C(=O)O` [Acetylcysteine] stands 50.8%; under `CC(=O)O[C@H]1C[C@@]2(C)[C@@H](C[C@@H](O)[C@H]3[C@@]4(C)CC[C@@H](O)[C@@H](C)[C@@H]4CC[C@@]32C)/C1=C(\CCC=C(C)C)C(=O)O` [Fusidic acid sodium salt], 51.2%. With `CN(C)CCn1nnnc1SCC1=C(C(=O)O)N2C(=O)[C@@H](NC(=O)Cc3csc(N)n3)[C@H]2SC1` [Cefotiam hydrochloride], the HCT116-GFP viability is 35.4%.

In turn, `C[C@@H]1C[C@H]2[C@@H]3C[C@H](F)C4=CC(=O)C=C[C@]4(C)[C@@]3(Cl)[C@@H](O)C[C@]2(C)[C@H]1C(=O)COC(=O)C(C)(C)C` [Clocortolone pivalate] came in with an HCT116-GFP viability of 71.3%. For `OC(c1cc(C(F)(F)F)nc2c(C(F)(F)F)cccc12)C1CCCCN1` (centres undefined) [Mefloquine hydrochloride] the value was 3.49%. Under `CNCCCC12CCC(c3ccccc31)c1ccccc12` [Maprotiline hydrochloride] stands 71.5%; under `CC1(C)O[C@@H]2C[C@H]3[C@@H]4CCC5=CC(=O)CC[C@]5(C)[C@@]4(F)[C@@H](O)C[C@]3(C)[C@]2(C(=O)CCl)O1` [Halcinonide], 85.6%; under `C[C@]12C=CC(=O)C=C1CC[C@H]1[C@@H]3C[C@@H](O)[C@](O)(C(=O)CO)[C@@]3(C)C[C@H](O)[C@@]12F` [Triamcinolone], 76.1%. Under `CCN(CC)C(=O)/C(C#N)=C/c1cc(O)c(O)c([N+](=O)[O-])c1` [Entacapone] stands 42.6%. As for `C[C@@H](O)[C@H]1C(=O)N2C(C(=O)O)=C(S[C@@H]3CN[C@H](C(=O)N(C)C)C3)[C@H](C)[C@H]12` [Meropenem], the HCT116-GFP viability was 24.3%. Under `CC(=O)O[C@H]1C[C@@H]2CC[C@@H]3[C@H](CC[C@@]4(C)[C@H]3C[C@H]([N+]3(C)CCCCC3)[C@@H]4OC(C)=O)[C@@]2(C)C[C@@H]1N1CCCCC1` [Vecuronium bromide] stands 38.8%. Under `CC(C)NC[C@H](O)COc1cccc2ccccc12` [(S)-propranolol hydrochloride] stands 37.2%; under `CN(C/C=C/c1ccccc1)Cc1cccc2ccccc12` [Naftifine hydrochloride], 41%; under `CC(=O)CCCCn1c(=O)c2c(ncn2C)n(C)c1=O` [Pentoxifylline], 36%. For `CN1C(=O)OC(C)(C)C1=O` [Trimethadione] the value was 51.9%; for `OCCN1CCN(CCCN2c3ccccc3C=Cc3ccccc32)CC1` [Opipramol dihydrochloride], 73.1%; for `C[C@H](Cc1cc2c(c(C(N)=O)c1)N(CCCO)CC2)NCCOc1ccccc1OCC(F)(F)F` [Silodosin], 38.7%. The compound `Cc1onc(-c2c(F)cccc2Cl)c1C(=O)N[C@@H]1C(=O)N2[C@@H]1SC(C)(C)[C@@H]2C(=O)O` [Flucloxacillin sodium] came in with an HCT116-GFP viability of 27.5%. With `CN(C)CCCSC(=N)N` [Dimaprit dihydrochloride], the HCT116-GFP viability is 32.3%.

Regarding `O=C(NCCN1CCOCC1)c1ccc(Cl)cc1` [Moclobemide], the HCT116-GFP viability came to 47.1%. As for `NS(=O)(=O)c1cc(Cl)c(Cl)c(S(N)(=O)=O)c1` [Dichlorphenamide], the HCT116-GFP viability came to 73.5%.

`CCCCCNC(=N)N/N=C/c1c[nH]c2ccc(OC)cc12` [Tegaserod maleate] gave an HCT116-GFP viability of 1.26%. Under `CCN1CCCC(OC(=O)C(c2ccccc2)c2ccccc2)C1` (centres undefined) [Piperidolate hydrochloride] stands 38.3%; under `CCCC1O[C@@H]2C[C@H]3[C@@H]4CCC5=CC(=O)C=C[C@]5(C)[C@H]4[C@@H](O)C[C@]3(C)[C@]2(C(=O)CO)O1` (some centres undefined) [Budesonide], 60%; under `CC(C(=O)O)c1cccc(C(=O)c2ccccc2)c1` (centres undefined) [Ketoprofen], 48%.

`C#C[C@]1(O)CC[C@H]2[C@@H]3CCc4cc(O)ccc4[C@H]3CC[C@@]21C` [Ethinylestradiol] registered an HCT116-GFP viability of 15.4%.

With `CCCCN(CCCC)CCC(O)c1cc2c(Cl)cc(Cl)cc2c2cc(C(F)(F)F)ccc12` (centres undefined) [Halofantrine hydrochloride], the HCT116-GFP viability worked out at 24.5%. Under `CCOC(=O)C1=C(C)NC(C)=C(C(=O)OCC)C1c1ccccc1/C=C/C(=O)OC(C)(C)C` [Lacidipine] stands 29.9%; under `CCOc1cc(CC(=O)N[C@@H](CC(C)C)c2ccccc2N2CCCCC2)ccc1C(=O)O` [Repaglinide], 43.4%; under `COc1c(N2C[C@@H]3CCCN[C@@H]3C2)c(F)cc2c(=O)c(C(=O)O)cn(C3CC3)c12` [Moxifloxacin], 26.1%.

Consider `COc1ccc(C(=O)c2ccccc2)c(O)c1` [Oxybenzone], for which the HCT116-GFP viability was 66.7%. `COc1ncnc(NS(=O)(=O)c2ccc(N)cc2)c1OC` [Sulfadoxine] returned an HCT116-GFP viability of 36.9%. For `CC(=O)OCC(=O)[C@@]1(O)[C@H](C)C[C@H]2[C@@H]3CCC4=CC(=O)C=C[C@]4(C)[C@@]3(F)[C@@H](O)C[C@@]21C` [Dexamethasone acetate] the value was 88.3%; for `COc1ccc(C(=O)CC(=O)c2ccc(C(C)(C)C)cc2)cc1` [Avobenzone], 41.6%; for `Nc1nc2c(ncn2COCCO)c(=O)[nH]1` [Acyclovir], 41.8%.

`CC(C)(C)NC(=O)[C@@H]1C[C@@H]2CCCC[C@@H]2CN1C[C@@H](O)[C@H](Cc1ccccc1)NC(=O)[C@H](CC(N)=O)NC(=O)c1ccc2ccccc2n1` [Saquinavir mesylate]: the HCT116-GFP viability was found to be 22.6%. The compound `CCCCCN(CCCCC)C(=O)C(CCC(=O)O)NC(=O)c1ccc(Cl)c(Cl)c1` (centres undefined) [Lorglumide sodium salt] had an HCT116-GFP viability of 75.3%. For `O=C(CCCCCCC(=O)Nc1ccccc1)NO` [Vorinostat] the value was 1.34%; for `CC[C@H]1OC(=O)C[C@@H](O)[C@H](C)[C@@H](O[C@@H]2O[C@H](C)[C@@H](O[C@H]3C[C@@](C)(O)[C@@H](O)[C@H](C)O3)[C@H](N(C)C)[C@H]2O)[C@@H](CC=O)C[C@@H](C)C(=O)/C=C/C(C)=C/[C@@H]1CO[C@@H]1O[C@H](C)[C@@H](O)[C@@H](OC)[C@H]1OC` [Tylosin], 68%.

In the case of `C[C@]12C[C@H](O)[C@H]3[C@@H](CCC4=CC(=O)CC[C@@]43C)[C@@H]1CC[C@@H]2C(=O)CO` [Corticosterone], the HCT116-GFP viability amounted to 62.1%.

On to `COC(=O)C1=C(C)NC(C)=C(C(=O)OC2CCCN(Cc3ccccc3)C2)C1c1cccc([N+](=O)[O-])c1` (centres undefined) [Benidipine hydrochloride], for which the HCT116-GFP viability was determined as 32%. For `CC1(C)O[C@@H]2C[C@H]3[C@@H]4CCC5=CC(=O)C=C[C@]5(C)[C@H]4[C@@H](O)C[C@]3(C)[C@]2(C(=O)CO)O1` [Desonide] the value was 84.1%; for `CCN(CC)C(=S)SSC(=S)N(CC)CC` [Disulfiram], 6.73%; for `C/C(=C(\CCOP(=O)(O)O)SC(=O)c1ccccc1)N(C=O)Cc1cnc(C)nc1N` [Benfotiamine], 67.6%. `Nc1c2c(nc3ccccc13)CCCC2` [Tacrine hydrochloride] yielded an HCT116-GFP viability of 57%. Under `O=C1CN(/N=C/c2ccc([N+](=O)[O-])o2)C(=O)N1` [Nitrofurantoin] stands 43.9%; under `Cc1ccccc1OCC(O)CO` (centres undefined) [Mephenesin], 31.9%.

In the case of `C[C@H](N)[C@H](O)c1cccc(O)c1` [Metaraminol bitartrate], the HCT116-GFP viability worked out at 38.9%. For `CCN(CC)CCOC(=O)C(Cc1cccc2ccccc12)CC1CCCO1` (centres undefined) [Nafronyl oxalate] the value was 73.5%. For `O=C1CN(/N=C/c2ccc(-c3ccc([N+](=O)[O-])cc3)o2)C(=O)N1` [Dantrolene sodium salt] the value was 41.7%. For the compound `CCOC(=O)n1ccn(C)c1=S` [Carbimazole], the HCT116-GFP viability worked out at 37.5%. For `CC1(C)S[C@@H]2[C@H](NC(=O)[C@H](C(=O)O)c3ccsc3)C(=O)N2[C@H]1C(=O)O` [Ticarcillin sodium] the value was 40.2%; for `Cc1cc(NS(=O)(=O)c2ccc(N)cc2)no1` [Sulfamethoxazole], 38.2%; for `CN[C@@H]1[C@@H](O)[C@@H](O[C@@H]2[C@@H](O)[C@H](O[C@H]3OC(CN)=CC[C@H]3N)[C@@H](N)C[C@H]2N)OC[C@]1(C)O` [Sisomicin sulfate], 46.5%. For `CC(C)c1ccc2oc3nc(N)c(C(=O)O)cc3c(=O)c2c1` [Amlexanox] the value was 64%; for `CC1(C)S[C@@H]2[C@H](NC(=O)[C@H](NC(=O)N3CCNC3=O)c3ccccc3)C(=O)N2[C@H]1C(=O)O` [Azlocillin sodium salt], 76.5%.
